The exact form of at least one protein or probe is not confirmed. At least one verdict was read from the data and is not stated in words by the source.
Test system: AcrC (formerly MalR), LacI family regulator (Actinoplanes sp. SE50/110 (ATCC 31044))
Experiment: competition with a labelled probe
Conditions: 12.5 pmol unlabeled competitor, complete displacement from 50-fold excess, partial at 25-fold; 20 uL; 1x EMSA buffer (20 mM Na2HPO4, 75 mM KCl, 5% glycerol, pH 8), 2.5 mM MgCl2, 0.1 mM EDTA, 0.05 ug herring sperm DNA, 0.1 ug BSA, 20 min at room temperature; recombinant protein; protein details: C-terminal His6

Sequence | binding result
AAGAACTTGCTGTTTTAGCAAGAAGTT (double strand) [Displacement oligo 1 (acrC site acbE, O1)] | binds
GTCTTCTGCAAGTTCTTGCAGCGGTC (double strand) [Displacement oligo 2 (acrC site acbD, O2)] | binds
AAGCTCTTGCAGTCAATGGAAGGGCTT (double strand) [Displacement oligo 3 (acrC site acrC)] | binds
